Assay results from patent US6911443B2 (Bayer Aktiengesellschaft, priority 2000, dated 2005).
The match of structure and compound is tentative.

Target: human Syk (GST-Syk) (Homo sapiens, UniProt P43405)
Experiment: Syk tyrosine kinase inhibitory assay
Format: biochemical
Settings: read-out: Activity grade; Table 13

## COc1ccc(-c2cc3nccn3c(Sc3ccc(CCC(=O)O)cc3C(N)=O)n2)cc1OC [Example 14-35]
  IC50: < 500 nM
